Data reported in PubChem BioAssay AID192 (DTP/NCI, 2004).
The list does not hold the whole screen: it is rich in T/C values a quarter to a half above the control, in often repeated tests (any T/C) and in doses without a T/C. Further doses and runs are listed elsewhere. T/C is the treated group as % of the vehicle group. Some entries give survivors of the animals treated and no T/C: the source holds a T/C of zero for them, seemingly a mark for toxic or unscored doses. Some doses without a T/C left all or most animals alive at the check, yet need not have been tolerated: survival well below the control is almost never listed, so the zero probably covers shortened survival too. Counts of survivors are from the toxicity check (mostly the fifth day) where no day follows; animals may have died later. Schedule codes are those of the source, taken here to give the interval after Q, in days (D) or hours (H), and the number of doses after X. Some entries were tested several times; their values stand side by side, smallest first. For survival time, the PubChem record calls one and a half times the control and up active, and a quarter to a half above the control has no call in these data; cut-offs in other NCI protocols can differ.

Tested on: BDF1 mice, B16 melanoma ip, median survival T/C
Experiment: NCI In Vivo Anticancer Drug Screen. Data for tumor model B16 Melanoma (intraperitoneal) in B6D2F1 (BDF1) mice
Settings: T/C endpoint: median survival time, higher T/C = longer survival
Method in brief: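 Survival or tumor size is measured after treatment of tumor-bearing mice and normalised to the vehicle-treated control group.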

[1] = dose: 50.0 mg/kg/injection, schedule: Q01DX009 (ip), vehicle: saline with Tween-80
[2] = dose: 100.0 mg/kg/injection, schedule: Q01DX009 (ip), vehicle: saline with Tween-80
[3] = dose: 200.0 mg/kg/injection, schedule: Q01DX009 (ip), vehicle: saline with Tween-80
[4] = dose: 400.0 mg/kg/injection, schedule: Q01DX009 (ip), vehicle: saline with Tween-80
[5] = dose: 50.0 mg/kg/injection, schedule: Q01DX009 (ip), vehicle: Klucel (hydroxypropylcellulose) (HPC)
[6] = dose: 100.0 mg/kg/injection, schedule: Q01DX009 (ip), vehicle: Klucel (hydroxypropylcellulose) (HPC)
[7] = dose: 200.0 mg/kg/injection, schedule: Q01DX009 (ip), vehicle: Klucel (hydroxypropylcellulose) (HPC)
[8] = dose: 400.0 mg/kg/injection, schedule: Q01DX009 (ip), vehicle: Klucel (hydroxypropylcellulose) (HPC)
[9] = dose: 100.0 mg/kg/injection, schedule: Q01DX009 (ip), vehicle: saline
[10] = dose: 200.0 mg/kg/injection, schedule: Q01DX009 (ip), vehicle: saline
[11] = dose: 400.0 mg/kg/injection, schedule: Q01DX009 (ip), vehicle: saline

**Q.** For C[n+]1ccc(Nc2ccc(NC(=O)c3ccc(Nc4cc[n+](C)c5ccc([N+](=O)[O-])cc45)cc3[N+](=O)[O-])cc2)cc1, which survivor count [1] is on record?
**A.** 10 of 10

**Q.** And the survivor count [2]?
**A.** 10 of 10

**Q.** And the survivor count [3]?
**A.** 6 of 10

**Q.** And the survivor count [4]?
**A.** 0 of 10

**Q.** How did the survivor count (dose: 25.0 mg/kg/injection, schedule: Q01DX009 (ip), vehicle: saline sonified) turn out when NCCCCS(=O)(=O)Nc1ccc(Nc2c3ccccc3nc3cc([N+](=O)[O-])ccc23)cc1 was run?
**A.** 5 of 6

**Q.** And the survivor count (dose: 50.0 mg/kg/injection, schedule: Q01DX009 (ip), vehicle: saline sonified)?
**A.** 5 of 6

**Q.** And the survivor count (dose: 100.0 mg/kg/injection, schedule: Q01DX009 (ip), vehicle: saline sonified)?
**A.** 6 of 6

**Q.** What about the survivor count (dose: 200.0 mg/kg/injection, schedule: Q01DX009 (ip), vehicle: saline sonified) of the same compound?
**A.** 5 of 6

**Q.** And the survivor count (dose: 400.0 mg/kg/injection, schedule: Q01DX001 (ip), vehicle: saline sonified)?
**A.** 4 of 6

**Q.** COc1cc([C@@H]2c3cc4c(c(O)c3C[C@H]3COC(=O)[C@@H]32)OCO4)cc(OC)c1O was tested. Which survivor count (dose: 1.0 mg/kg/injection, schedule: Q01DX009 (ip), vehicle: suspension in saline) did it give?
**A.** 8 of 10

**Q.** What about the survivor count (dose: 2.0 mg/kg/injection, schedule: Q01DX009 (ip), vehicle: suspension in saline) of the same compound?
**A.** 4 of 10

**Q.** And the survivor count (dose: 4.0 mg/kg/injection, schedule: Q01DX009 (ip), vehicle: suspension in saline)?
**A.** 1 of 10

**Q.** Which survivor count (dose: 320.0 mg/kg/injection, schedule: Q01DX009 (ip), vehicle: saline) does the source give for NC(=O)c1ncn(C2OC(CO)C(O)C2O)n1 (configuration not stated) here?
**A.** 10 of 10

**Q.** What does the source list for COc1ccc(S(=O)(=O)N/N=C/C(=O)O)cc1?
**A.** T/C (dose: 12.5 mg/kg/injection, schedule: Q01DX009 (ip), vehicle: other): 125 % of control; T/C (dose: 25.0 mg/kg/injection, schedule: Q01DX009 (ip), vehicle: other): 125 % of control; T/C (dose: 50.0 mg/kg/injection, schedule: Q01DX009 (ip), vehicle: other): 125 % of control; survivor count (dose: 100.0 mg/kg/injection, schedule: Q01DX009 (ip), vehicle: other): 10 of 10; survivor count (dose: 200.0 mg/kg/injection, schedule: Q01DX009 (ip), vehicle: other): 5 of 10; survivor count (dose: 400.0 mg/kg/injection, schedule: Q01DX009 (ip), vehicle: other): 3 of 10

**Q.** With NC(N)=NCCCC(NC(=O)OCc1ccccc1)C(=O)O (configuration not stated) as the compound, how does the survivor count (dose: 12.5 mg/kg/injection, schedule: Q01DX009 (ip), vehicle: Klucel (hydroxypropylcellulose) (HPC)) read?
**A.** 10 of 10

**Q.** And the survivor count (dose: 25.0 mg/kg/injection, schedule: Q01DX009 (ip), vehicle: Klucel (hydroxypropylcellulose) (HPC))?
**A.** 10 of 10

**Q.** And the survivor count [5]?
**A.** 10 of 10

**Q.** And the survivor count [6]?
**A.** 10 of 10

**Q.** And the survivor count [7]?
**A.** 10 of 10

**Q.** And the survivor count [8]?
**A.** 10 of 10

**Q.** What does the source list for CNC(=S)N/N=C1/c2cc(Cl)ccc2-c2c(Cl)cc(Cl)cc21?
**A.** survivor count (dose: 12.5 mg/kg/injection, schedule: Q01DX009 (ip), vehicle: saline with Tween-80): 6 of 6; survivor count (dose: 25.0 mg/kg/injection, schedule: Q01DX009 (ip), vehicle: saline with Tween-80): 6 of 6; survivor count [1]: 6 of 6; survivor count [2]: 6 of 6; survivor count [3]: 6 of 6; survivor count [4]: 6 of 6; survivor count (dose: 800.0 mg/kg/injection, schedule: Q01DX009 (ip), vehicle: saline with Tween-80): 6 of 6

**Q.** For NNCCc1ccccc1, which survivor count (dose: 6.25 mg/kg/injection, schedule: Q01DX009 (ip), vehicle: saline) is on record?
**A.** 8 of 10

**Q.** What about the survivor count [9] of the same compound?
**A.** 3 of 10

**Q.** And the survivor count [10]?
**A.** 0 of 10

**Q.** What about the survivor count [11] of the same compound?
**A.** 0 of 10

**Q.** Which results are given for CCCCCCCCCCCC(=O)Nc1ccccc1?
**A.** survivor count [6]: 10 of 10; survivor count [7]: 10 of 10; survivor count [8]: 9 of 10

**Q.** With C1CC[N-]CC1.CC(=N\O)/C(C)=N/O.CC(=N\O)/C(C)=N/O.[CH2-]C.[Co+2] as the compound, how does the survivor count [6] read?
**A.** 1 of 10

**Q.** Cc1ccc(C)n1-c1ccccc1 was tested. Which survivor count (dose: 400.0 mg/kg/injection, schedule: Q01DX009 (ip), vehicle: saline + alcohol) did it give?
**A.** 10 of 10

**Q.** Which T/C (dose: 25.0 mg/kg/injection, schedule: Q04DX003 (ip), vehicle: saline with Tween-80) does the source give for CCCC(=O)OCc1ccc(Cl)c(Cl)c1 here?
**A.** 126 % of control

**Q.** How did the survivor count [1] turn out when C#CC1(OCC(CCl)OC(N)=O)CCCCC1 (configuration not stated) was run?
**A.** 10 of 10

**Q.** And the survivor count [3]?
**A.** 10 of 10

**Q.** What about the survivor count [4] of the same compound?
**A.** 10 of 10

**Q.** Which survivor count (dose: 200.0 mg/kg/injection, schedule: Q04DX003 (ip), vehicle: carboxymethylcellulose (CMC)) does the source give for Cc1ccc([N+](=O)[O-])cc1NC(=O)Oc1ccc(Cl)cc1 here?
**A.** 10 of 10

**Q.** For CNC(=O)n1c(N)nc(-c2ccccc2)c1-c1ccccc1, which survivor count [2] is on record?
**A.** 6 of 10

**Q.** Which survivor count [4] does the source give for CC(C)c1ccc(C(=O)CCCCl)cc1 here?
**A.** 7 of 10

**Q.** C[n+]1c(-c2cccc(OCCOCCOc3cccc(-c4c5cc(N)ccc5c5ccc(N)cc5[n+]4C)c3)c2)c2cc(N)ccc2c2ccc(N)cc21 was tested. Which T/C (dose: 1.0 mg/kg/injection, schedule: Q01DX009 (ip), vehicle: water) did it give?
**A.** 137 % of control

**Q.** What about the T/C (dose: 2.0 mg/kg/injection, schedule: Q01DX009 (ip), vehicle: water) of the same compound?
**A.** 145 % of control

**Q.** What about the survivor count (dose: 4.0 mg/kg/injection, schedule: Q01DX009 (ip), vehicle: water) of the same compound?
**A.** 10 of 10

**Q.** With CO[C@H](/C(C)=C/C=C/C(C)=C/c1coc(C)n1)[C@H](C)[C@H]1C[C@@H](O)[C@@]2(C)O[C@H]2/C=C/[C@@H](C)[C@@H]2C[C@@H](CC(=O)O2)C[C@H]2O[C@@H]2C(=O)O1 as the compound, how does the T/C (dose: 0.1 mg/kg/injection, schedule: Q01DX009 (ip), vehicle: Klucel (hydroxypropylcellulose) (HPC)) read?
**A.** 126 % of control

**Q.** What about the T/C (dose: 0.2 mg/kg/injection, schedule: Q01DX009 (ip), vehicle: Klucel (hydroxypropylcellulose) (HPC)) of the same compound?
**A.** 142 % of control

**Q.** And the T/C (dose: 0.25 mg/kg/injection, schedule: Q01DX009 (sc), vehicle: Klucel (hydroxypropylcellulose) (HPC))?
**A.** 145 % of control

**Q.** What about the survivor count (dose: 0.8 mg/kg/injection, schedule: Q01DX009 (ip), vehicle: Klucel (hydroxypropylcellulose) (HPC)) of the same compound?
**A.** 10 of 10

**Q.** And the survivor count (dose: 1.0 mg/kg/injection, schedule: Q01DX009 (sc), vehicle: Klucel (hydroxypropylcellulose) (HPC))?
**A.** 10 of 10

**Q.** What about the survivor count (dose: 1.6 mg/kg/injection, schedule: Q01DX009 (ip), vehicle: Klucel (hydroxypropylcellulose) (HPC)) of the same compound?
**A.** 7 of 10

**Q.** What about the survivor count (dose: 2.0 mg/kg/injection, schedule: Q01DX009 (sc), vehicle: Klucel (hydroxypropylcellulose) (HPC)) of the same compound?
**A.** 3 of 10

**Q.** What about the survivor count (dose: 4.0 mg/kg/injection, schedule: Q01DX009 (sc), vehicle: Klucel (hydroxypropylcellulose) (HPC)) of the same compound?
**A.** 0 of 10

**Q.** C[Se]c1ncnc2c1c(C#N)cn2C1OC(CO)C(O)C1O (configuration not stated) was tested. Which survivor count (dose: 6.25 mg/kg/injection, schedule: Q01DX009 (ip), vehicle: Klucel (hydroxypropylcellulose) (HPC)) did it give?
**A.** 10 of 10

**Q.** What about the survivor count [5] of the same compound?
**A.** 0 of 10

**Q.** With Nc1cc(N)cc(Cc2ccccc2)c1 as the compound, how does the survivor count [8] read?
**A.** 4 of 10

**Q.** How did the survivor count [11] turn out when CC1(C)OC(=O)N(CO)C1=O was run?
**A.** 8 of 10

**Q.** For CN(C)CC/C=C1\c2ccccc2CSc2ccccc21, which survivor count (dose: 12.5 mg/kg/injection, schedule: Q01DX009 (ip), vehicle: saline) is on record?
**A.** 8 of 10

**Q.** And the survivor count (dose: 25.0 mg/kg/injection, schedule: Q01DX009 (ip), vehicle: saline)?
**A.** 10 of 10

**Q.** What about the survivor count [9] of the same compound?
**A.** 0 of 10

**Q.** And the survivor count [10]?
**A.** 0 of 10

**Q.** What about the survivor count [11] of the same compound?
**A.** 0 of 10

**Q.** What does the source list for CC1OC(O[C@H]2/C=C/C=C/C=C/C=C/C=C/C=C/C=C/[C@H](C)[C@@H](O)[C@@H](C)[C@H](C)OC(=O)C[C@H](O)C[C@H](O)CC[C@@H](O)[C@H](O)C[C@H](O)C[C@]3(O)C[C@H](O)[C@@H](C(=O)O)[C@H](C2)O3)C(O)C(N)C1O (some centres not stated)?
**A.** survivor count (dose: 32.0 mg/kg/injection, schedule: Q01DX009 (ip), vehicle: saline): 4 of 10 and 5 of 10; survivor count (dose: 64.0 mg/kg/injection, schedule: Q01DX009 (ip), vehicle: saline): 0 of 10 and 1 of 10; survivor count (dose: 128.0 mg/kg/injection, schedule: Q01DX009 (ip), vehicle: saline): 0 of 10

**Q.** O=S1(=O)N2CN3CN(C2)CN1C3 was tested. Which survivor count [7] did it give?
**A.** 8 of 10
